No constants are given. Whether binding was seen depends on the method and setting. In cells and extracts the contact can be indirect. Some results given as binding are weak or reduced against the parent protein; the word gives no strength.

The chains behind the UniProt entries cited, without tags or fusion partners. Where a name states a change or a piece, a line headed by the entry shows the natural chain unless it says otherwise. A line that says so, or that is headed by a name, gives the form on record, which may keep a tag or linker. Residues count along the entry.
Pyruvate kinase M2 (PKM2), endogenous in neonatal rat cardiomyocytes (rat (endogenous in NRCMs)) (P11980, form named): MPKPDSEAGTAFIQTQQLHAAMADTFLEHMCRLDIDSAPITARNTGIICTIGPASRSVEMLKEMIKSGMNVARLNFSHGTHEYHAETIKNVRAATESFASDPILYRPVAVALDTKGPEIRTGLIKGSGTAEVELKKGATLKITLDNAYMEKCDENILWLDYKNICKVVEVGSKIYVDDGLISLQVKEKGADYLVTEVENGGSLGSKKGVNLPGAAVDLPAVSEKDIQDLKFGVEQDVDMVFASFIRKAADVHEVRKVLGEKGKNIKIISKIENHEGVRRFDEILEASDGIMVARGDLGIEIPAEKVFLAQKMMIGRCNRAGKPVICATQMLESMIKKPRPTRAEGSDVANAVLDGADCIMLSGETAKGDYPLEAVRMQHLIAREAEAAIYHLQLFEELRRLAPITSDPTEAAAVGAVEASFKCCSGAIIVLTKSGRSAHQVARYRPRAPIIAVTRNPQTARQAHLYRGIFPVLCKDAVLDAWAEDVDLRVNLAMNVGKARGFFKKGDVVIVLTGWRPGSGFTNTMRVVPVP
UniProt P14618: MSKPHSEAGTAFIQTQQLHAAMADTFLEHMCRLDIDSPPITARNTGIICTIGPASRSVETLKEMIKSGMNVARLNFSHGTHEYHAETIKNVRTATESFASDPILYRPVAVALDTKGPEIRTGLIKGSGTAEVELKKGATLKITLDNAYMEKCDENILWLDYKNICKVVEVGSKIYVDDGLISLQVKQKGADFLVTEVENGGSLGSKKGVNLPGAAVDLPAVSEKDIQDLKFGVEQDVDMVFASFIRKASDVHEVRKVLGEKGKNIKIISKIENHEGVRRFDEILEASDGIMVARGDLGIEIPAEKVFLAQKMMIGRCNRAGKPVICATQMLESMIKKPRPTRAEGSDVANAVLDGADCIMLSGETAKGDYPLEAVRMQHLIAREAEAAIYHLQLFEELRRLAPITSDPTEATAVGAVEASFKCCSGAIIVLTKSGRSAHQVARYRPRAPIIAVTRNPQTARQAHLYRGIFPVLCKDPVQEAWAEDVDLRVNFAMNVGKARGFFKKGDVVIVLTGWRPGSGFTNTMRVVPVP
GFP tagged PKM2 exon 10 (exon 10 only): residues 436-497 of P14618
GFP tagged Pkm2-Δexon 10 (exon 10 deletion) (P14618, form named): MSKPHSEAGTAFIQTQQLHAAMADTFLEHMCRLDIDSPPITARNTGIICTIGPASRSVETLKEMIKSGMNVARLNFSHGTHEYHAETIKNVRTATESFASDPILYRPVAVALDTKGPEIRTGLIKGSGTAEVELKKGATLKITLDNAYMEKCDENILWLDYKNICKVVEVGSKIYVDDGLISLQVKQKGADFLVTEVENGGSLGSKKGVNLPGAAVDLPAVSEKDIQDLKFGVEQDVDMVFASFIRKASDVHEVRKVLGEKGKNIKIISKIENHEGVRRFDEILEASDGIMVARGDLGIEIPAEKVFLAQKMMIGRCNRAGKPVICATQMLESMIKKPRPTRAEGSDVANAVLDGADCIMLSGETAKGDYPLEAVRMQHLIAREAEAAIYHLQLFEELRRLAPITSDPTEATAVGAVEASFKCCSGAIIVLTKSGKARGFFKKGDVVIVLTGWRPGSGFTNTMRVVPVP
Sarcoplasmic/endoplasmic reticulum calcium ATPase 2a (SERCA2a), endogenous in neonatal rat cardiomyocytes (P11507-2, form named): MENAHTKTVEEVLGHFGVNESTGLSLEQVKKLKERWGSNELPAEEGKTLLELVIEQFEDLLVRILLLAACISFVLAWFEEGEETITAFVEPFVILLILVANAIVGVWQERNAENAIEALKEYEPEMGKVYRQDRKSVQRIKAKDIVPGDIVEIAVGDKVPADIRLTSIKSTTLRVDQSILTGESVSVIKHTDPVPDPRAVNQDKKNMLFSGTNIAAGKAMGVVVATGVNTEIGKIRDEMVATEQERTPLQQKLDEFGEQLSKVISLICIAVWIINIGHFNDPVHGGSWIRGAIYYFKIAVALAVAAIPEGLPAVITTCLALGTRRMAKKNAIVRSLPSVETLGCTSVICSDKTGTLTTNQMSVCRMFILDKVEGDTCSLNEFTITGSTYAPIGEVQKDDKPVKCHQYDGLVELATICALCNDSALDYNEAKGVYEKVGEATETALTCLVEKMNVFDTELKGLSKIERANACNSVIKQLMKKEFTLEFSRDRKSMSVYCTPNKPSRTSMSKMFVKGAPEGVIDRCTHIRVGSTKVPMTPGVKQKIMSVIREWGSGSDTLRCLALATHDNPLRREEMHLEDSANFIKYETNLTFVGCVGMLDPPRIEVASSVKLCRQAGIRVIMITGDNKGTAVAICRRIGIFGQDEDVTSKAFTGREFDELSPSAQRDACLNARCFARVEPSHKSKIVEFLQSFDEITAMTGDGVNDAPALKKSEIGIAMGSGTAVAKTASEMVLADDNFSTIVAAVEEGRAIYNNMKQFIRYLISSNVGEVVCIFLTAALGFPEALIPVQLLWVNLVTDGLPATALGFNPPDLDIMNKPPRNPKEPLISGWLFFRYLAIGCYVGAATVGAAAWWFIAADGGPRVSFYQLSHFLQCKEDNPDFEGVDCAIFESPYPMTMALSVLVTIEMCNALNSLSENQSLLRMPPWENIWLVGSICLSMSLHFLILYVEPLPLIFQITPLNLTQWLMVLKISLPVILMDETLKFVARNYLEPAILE
Flag-SERCA2a (P16615-2, form named): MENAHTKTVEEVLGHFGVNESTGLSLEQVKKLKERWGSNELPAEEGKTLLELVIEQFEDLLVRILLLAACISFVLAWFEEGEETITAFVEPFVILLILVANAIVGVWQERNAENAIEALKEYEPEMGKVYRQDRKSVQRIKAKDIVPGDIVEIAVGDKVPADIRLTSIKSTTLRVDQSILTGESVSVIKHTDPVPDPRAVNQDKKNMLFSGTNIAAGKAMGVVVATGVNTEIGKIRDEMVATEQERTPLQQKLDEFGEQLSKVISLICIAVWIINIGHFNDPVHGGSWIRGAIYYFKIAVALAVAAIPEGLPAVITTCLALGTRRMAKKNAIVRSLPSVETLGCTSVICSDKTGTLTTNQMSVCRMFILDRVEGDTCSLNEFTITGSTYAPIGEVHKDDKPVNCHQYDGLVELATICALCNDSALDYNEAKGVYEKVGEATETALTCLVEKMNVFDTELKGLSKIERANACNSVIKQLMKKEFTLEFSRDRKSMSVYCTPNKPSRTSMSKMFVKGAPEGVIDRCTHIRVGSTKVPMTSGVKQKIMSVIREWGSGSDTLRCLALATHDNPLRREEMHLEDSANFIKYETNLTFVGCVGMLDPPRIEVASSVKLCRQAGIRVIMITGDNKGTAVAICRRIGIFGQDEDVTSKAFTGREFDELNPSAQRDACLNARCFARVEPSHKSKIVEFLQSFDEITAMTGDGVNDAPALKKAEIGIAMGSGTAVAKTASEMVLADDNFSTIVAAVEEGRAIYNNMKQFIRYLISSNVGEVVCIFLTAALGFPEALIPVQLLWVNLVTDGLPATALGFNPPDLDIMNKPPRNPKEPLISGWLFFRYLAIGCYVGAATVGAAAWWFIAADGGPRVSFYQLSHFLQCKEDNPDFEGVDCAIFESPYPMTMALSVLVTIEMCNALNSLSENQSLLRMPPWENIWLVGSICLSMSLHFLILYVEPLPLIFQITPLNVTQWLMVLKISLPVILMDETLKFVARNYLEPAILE

Data on two substances can be found in PMC9789059.

Assay [1] concerns the target Pyruvate kinase M2 (PKM2), endogenous in neonatal rat cardiomyocytes (rat (endogenous in NRCMs)) (UniProt P11980). In words: co-IP; endogenous proteins; NRCM RIPA lysate incubated with anti-PKM2 antibody or IgG overnight at 4 °C, captured on protein A/G agarose; Western blot for SERCA2a.
Assay [2] concerns the target GFP tagged Pkm2-Δexon 10 (exon 10 deletion) (human) (UniProt P14618). In words: co-IP; HEK-293T co-transfected with Flag-SERCA2a and GFP-tagged PKM2 full-length or truncated forms, 48 h after transfection; immunoprecipitation by anti-GFP antibody, Western blot.
In assay [3] the target is GFP tagged Pkm2 full-length (homo-GFP-PKM2) (human) (UniProt P14618). The assay is described as above.
Assay [4] deals with GFP tagged PKM2 exon 10 (exon 10 only) (human) (UniProt P14618). The description is as above.

On to “Sarcoplasmic/endoplasmic reticulum calcium ATPase 2a (SERCA2a), endogenous in neonatal rat cardiomyocytes (from UniProt P11507-2 1-997)”, for which, in assay [1], the binding result was “binds”.

In the case of “Flag-SERCA2a (from UniProt P16615-2 1-997)”, the binding result in assay [2] is recorded as “binds”; in assay [3], “binds”; in assay [4] it was “no binding”.
